# According to patent publication US10801068B2, “JAG1 expression predicts therapeutic response in NASH” (The Trustees of Columbia University in the City of New York, priority 2015, dated 2020):
# For at least one compound, name, drawing or mass did not settle the structure.
# How the values were obtained:
# [1] = tested on: HES1; experiment: FLINT liver sections, HES1 staining; assay type: in vivo, human; details: OCA-treated responders
# [2] = tested on: HEYL; experiment: FLINT liver sections, HEYL staining; assay type: in vivo, human; details: OCA-treated responders
# [3] = tested on: JAG1; experiment: FLINT liver sections, anti-JAG1 staining; assay type: in vivo, human; details: OCA-treated responders, 72 wk
# [4] = tested on: HES1; experiment: FLINT liver biopsies, quantitative PCR of HES1; assay type: in vivo, human; details: for liver HES1, end-of-treatment as compared to baseline: 72 wk
# [5] = tested on: JAG1; experiment: FLINT liver biopsies, qPCR of JAG1; assay type: in vivo, human; details: OCA-treated responders, 72 wk
# [6] = tested on: adult patients with biopsy-confirmed NASH; details: cited from earlier work
# [7] = tested on: HEYL; experiment: FLINT liver biopsies, quantitative PCR of HEYL; assay type: in vivo, human; details: for liver HEYL, end-of-treatment as compared to baseline: 72 wk
# [8] = tested on: adult, non-diabetic patients with NASH; details: final analysis, pioglitazone 30 mg daily, cited from earlier work
# [9] = 72 wk end-of-treatment biopsies, cross-sectional
Compound,"hepatocyte HES1 staining, end-of-treatment as compared to baseline [1]","non-hepatocyte HEYL staining, end-of-treatment as compared to baseline [2]","hepatocyte JAG1 protein staining, end-of-treatment as compared to baseline [3]","HES1 expression [4, 9]","liver HES1, end-of-treatment as compared to baseline ([4]; OCA-treated non-responders)","liver HES1, end-of-treatment as compared to baseline ([4]; OCA-treated responders)","liver JAG1 gene expression, end-of-treatment as compared to baseline [5]","patients meeting the primary outcome (improvement in NAS by at least 2 points without worsening of fibrosis) ([6]; interim analysis, 21% of placebo-treated patients)",placebo-adjusted reduction in ALT levels ([6]; p<0.0001),placebo-adjusted reduction in NAS ([6]; p<0.0001),"HEYL expression [7, 9]","liver HEYL, end-of-treatment as compared to baseline ([7]; OCA-treated non-responders)","liver HEYL, end-of-treatment as compared to baseline ([7]; OCA-treated responders)","NASH secondary outcomes (ALT levels, total NAS score and components) [8]",PIVENS primary outcome (improvement in NASH pathology) ([8]; vitamin E 800 IU daily)
"CC[C@H]1[C@@H](O)[C@@H]2[C@H](CC[C@]3(C)[C@@H]([C@H](C)CCC(=O)O)CC[C@@H]23)[C@@]2(C)CC[C@@H](O)C[C@@H]12 [OCA, obeticholic acid]",lower,lower,lower,reduced,increased or unchanged,lower,lower,43%,−20 U/L,−0.9,reduced,increased or unchanged,lower,–,–
"CCc1ccc(CCOc2ccc(CC3SC(=O)NC3=O)cc2)nc1 (stereo not drawn) [PIO, pioglitazone]",–,–,–,–,–,–,–,–,–,–,–,–,–,equal or greater efficacy as vitamin E,"a near-miss, showing a trend towards benefit in the primary outcome"
